The nature of this test: qHTS Assay to Find Inhibitors of Chronic Active B-Cell Receptor Signaling. The following applies: ABC-DLBCL IkBa-CBG/CBR reporter, luminescence ratio (green luciferase fused to IkBa over red control in TMD8 lymphoma cells), 4 h. The method, boiled down: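 Doxycycline induced both beetle luciferases in TMD8 lymphoma cells; IKK-driven degradation limits the IkappaBalpha-fused green signal, while red luminescence normalises for cell number and nonspecific effects. Compounds tested up to 46 uM, 4 hrs.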

The mark [1] stands for this setting: measured here: CBR red luminescence, cell number.
Where [2] appears, read: measured here: IkBa-CBG green luminescence.

This is one part of the list. These are further read-outs of the screen, such as a control signal, another cell line or another target. No call is given for them. Compounds called inactive in the main read-out are mostly missing here. The note in brackets gives the kind of curve behind each potency; many fits are weak.

A word on the AC50: it is the midpoint of the concentration-response curve, whichever way the signal moves.

`COc1ccc(-c2cc(OC)c3c(C)oc(C)c3c(=O)c2)cc1OC`: under setting [1], the AC50 is 35.5 µM [falling, single point].
With `CNC(=O)c1c(NC(=O)c2ccc(S(=O)(=O)N3CCCC3)cc2)sc2c1CCN(C(C)C)C2`, under setting [1], the AC50 was 0.631 µM [rising, full curve, poor fit].
For the molecule `CCCCN(CC)C(=O)c1ccc2c(c1)OCO2`, under setting [1], the AC50 was 1.46 µM [rising, full curve, poor fit].
Still for that read-out and setting: to `Cc1ccccc1-n1c(SCc2ccccn2)nc2n[nH]c(C)c2c1=N` belongs 6.51 µM [falling, partial curve, poor fit].
With `COCCN(Cc1cc2cc(C)cc(C)c2nc1Cl)C(=O)Nc1ccccc1`, the AC50 under setting [2] was 14.6 µM [falling, partial curve].
Regarding `CC1(C)Cc2c(ccc3ccccc23)/C(=C/C#N)N1`, the AC50 under setting [1] is 12.6 µM [rising, partial curve, poor fit].
Regarding `CC(=O)Nc1ccc(NC(=O)COC(=O)c2c(-c3ccccc3)noc2C)cc1`, the AC50 under setting [1] is 18.4 µM [falling, single point].
Still for that read-out and setting: next, `CCOC(=O)C1CCCN(C(=O)CN2CCN(Cc3ccc(Cl)cc3)C2=O)C1` (stereo unspecified): 2.06 µM [falling, full curve, poor fit]; `Cc1ccc(S(=O)(=O)NCCCN(C)C)cc1`: 4.47 µM [rising, single point]; `CCSc1cc(N2CC(C)OC(C)C2)nc(-c2ccccc2Cl)n1` (stereo unspecified): 6.51 µM [rising, partial curve].
Take `O=C1c2ccccc2NC(c2ccc(-c3ccc(C(F)(F)F)cc3)o2)N1O` (stereo unspecified): the AC50 under setting [1] was 20.6 µM [falling, partial curve, poor fit].
`CC(C)N1CCc2c(sc(NC(=O)c3cc4cc([N+](=O)[O-])ccc4s3)c2C(N)=O)C1`: under setting [1], the AC50 was 22.4 µM [falling, single point].
For `CCc1ccc(CN(C)C(=O)CCc2nnc(-c3ccc(-c4ccccc4)cc3)o2)nc1`, under setting [1], the AC50 was 14.1 µM [falling, single point].
In the case of `Cc1cc(C)nc(NS(=O)(=O)c2ccc(NC(=O)CN3C(=O)S/C(=C\c4ccccc4)C3=O)cc2)n1`, the AC50 under setting [1] is 23.1 µM [falling, single point] and the AC50 under setting [2] was 20.6 µM [falling, partial curve, poor fit].
Take `O=C(COc1ccc(/C=N/NC(=O)C(=O)N2CCCCC2)cc1)Nc1ccccc1Cl`: the AC50 under setting [1] is 5.62 µM [falling, partial curve, poor fit].
As for `O=c1/c(=C/c2ccccn2)sc2nc3ccccc3n12`, the AC50 under setting [1] is 0.316 µM [rising, full curve, poor fit].
In the case of `CCCCn1c(N2CCC(Cc3ccccc3)CC2)nc2c1c(=O)[nH]c(=O)n2C`, under setting [1], the AC50 is 16.4 µM [falling, single point].
Regarding `S=c1[nH]nc(-c2ccccc2)o1`, under setting [1], the AC50 was 35.5 µM [falling, single point].
As to `O=C(CN1C(=O)c2cccc3cccc1c23)NCc1cccnc1`, the AC50 under setting [1] is 0.116 µM [falling, full curve, poor fit].
Take `Cc1ccc(N=C2NC(=O)CS2)c(C)c1`: the AC50 under setting [1] is 5.8 µM [rising, partial curve, poor fit].
For `CCOC(=O)c1ccc(NC(=O)CN2CCc3ccccc3C2)cc1`, the AC50 under setting [1] was 13 µM [rising, partial curve, poor fit].
As for `CCOC(=O)/C(=N\Nc1ncnc2ccccc12)c1ccc(OC)cc1`, under setting [1], the AC50 is 14.1 µM [falling, single point].
For `CC1=C(CC(=O)c2ccccc2)C(=O)c2ccccc2C1=O`, the AC50 under setting [1] was 35.5 µM [falling, single point].
Still for that read-out and setting: next, `NC(=O)c1ccc(NC(=O)CCc2nc3ccccc3s2)cc1`: 35.5 µM [falling, partial curve, poor fit].
For `O=C1c2ccccc2NC(c2ccc(-c3ccccc3F)o2)N1O` (stereo unspecified), the AC50 under setting [1] was 18.4 µM [falling, partial curve].
Take `Cc1cc(-c2ccc(N3CCOCC3)cc2)nc2ccccc12`: the AC50 under setting [1] was 2.91 µM [rising, full curve].
As to `O=c1oc2ccccc2c2c1C1O[C@](c3ccsc3)(Cc3ccccc31)O2`, the AC50 under setting [1] was 0.355 µM [falling, full curve, poor fit].
Regarding `Cc1noc(C(=O)Nc2cccc(O)c2)c1Cl`, under setting [1], the AC50 is 3.98 µM [falling, partial curve, poor fit].
On to `CCOC(=O)C1CCN(S(=O)(=O)c2ccc3c4c(cccc24)C(=O)N3CC)CC1`, for which the AC50 was 6.51 µM [rising, single point] under setting [1] and 1.64 µM [falling, partial curve, poor fit] under setting [2].
Turning to `C=CCNC(=S)N1CCN(CCN=CC2=C(O)CC(c3ccc(Cl)cc3)CC2=O)CC1` (stereo unspecified), the AC50 under setting [1] is 3.16 µM [falling, partial curve, poor fit].
As for `O=C(Nc1cc(=O)[nH]c2ncnn12)c1ccccc1Cl`, under setting [1], the AC50 is 35.5 µM [falling, single point].
Turning to `O=C(/C=C/c1ccc(F)cc1)NC(=S)N1CCCCC1c1cccnc1` (stereo unspecified), under setting [1], the AC50 was 6.31 µM [rising, single point].
On the same count and under the same terms, to `CC1=CC(=NOC(=O)c2cccc([N+](=O)[O-])c2)C=C(C)C1=O` belongs 7.31 µM [falling, partial curve].
For `COc1cccc(C2CC(=O)Nc3n[nH]c(-c4ccccc4)c32)c1OC` (stereo unspecified), under setting [1], the AC50 was 1.78 µM [rising, partial curve, poor fit].
Still for that read-out and setting: next, `CC(=O)c1cccc(Nc2ncnc3ccc(Br)cc23)c1`: 10 µM [falling, partial curve, poor fit].
For `O=CN1CCN(c2ncnc3c2nnn3Cc2c(F)cccc2Cl)CC1`, the concentration at half-maximal activity (AC50) under setting [1] is 11.2 µM [rising, partial curve, poor fit].
For the molecule `Cc1nnc(N/N=C/c2ccc(Br)cc2)n1N`, under setting [1], the AC50 is 4.47 µM [rising, single point].
Regarding `Cc1cccc(NC(=O)COc2nsnc2N2CCOCC2)c1`, under setting [1], the AC50 is 17.8 µM [falling, single point].
The same measure, in the same setting: to `CCCC(=O)N/C(N)=N/c1nc(C)c2ccccc2n1` belongs 2 µM [falling, full curve]; to `N#Cc1cnc(N)c(Br)c1`, 11.2 µM [falling, partial curve, poor fit].
With `Cc1ccc(CC2CC(=O)N(C(Cc3ccccc3)C(=O)O)C2=O)cc1` (stereo unspecified), under setting [1], the AC50 was 1 µM [rising, full curve, poor fit].
For the molecule `CC(CNC(=S)Nc1cc(F)cc(F)c1)CSc1ccc(Cl)cc1` (stereo unspecified), the AC50 under setting [1] is 35.5 µM [falling, single point].
As to `Cc1ccccc1CN(C)Cc1cc(=O)oc2c(C)c(C)ccc12`, under setting [1], the AC50 was 6.31 µM [rising, full curve, poor fit].
Still for that read-out and setting: to `Cc1ccc(NC(=O)NNC(=O)c2snnc2C)cc1` belongs 15.8 µM [falling, single point]; to `CCOc1ccccc1NC(=O)C(NCCc1ccc(OC)cc1)c1ccccc1` (stereo unspecified), 2.82 µM [falling, single point]; to `CCOc1ccc(N(CC(=O)N/N=C/c2cc([N+](=O)[O-])ccc2Cl)S(C)(=O)=O)cc1`, 0.0058 µM [falling, full curve, poor fit].
On the same count and under the same terms, to `COc1cccc(C(=O)NC2CC3CCCC(C2)N3CC(=O)Nc2ccccc2C(F)(F)F)c1` (stereo unspecified) belongs 35.5 µM [falling, single point]; to `COc1ccc(CC(=O)Nc2nc3ccccc3s2)cc1S(=O)(=O)N1CCOCC1`, 14.1 µM [falling, partial curve, poor fit].
On the same count and under the same terms, to `Cc1ccc(C(c2c(C)[nH][nH]c2=O)c2c(C)[nH][nH]c2=O)cc1[N+](=O)[O-]` belongs 14.6 µM [falling, partial curve].
On to `CN(C)C(=O)c1ccc(Nc2nnc(-c3ccc(O)cc3)c3ccccc23)cc1`, for which, under setting [1], the AC50 is 14.1 µM [falling, single point].
For `COc1cc(/C=N/NS(=O)(=O)c2ccc(C)cc2)ccc1OCc1ccc(C(=O)O)cc1`, the AC50 under setting [1] is 2 µM [falling, full curve].
As for `CCC(Cc1ccccc1)NC(=O)CCn1cccc1` (stereo unspecified), the AC50 under setting [1] is 0.00461 µM [falling, full curve, poor fit].
`Cc1ccc(-c2noc(CCCC(=O)NC3CCCC3)n2)cc1`: the AC50 under setting [2] was 5.01 µM [rising, partial curve, poor fit].
Regarding `CCOC(=O)c1c(NC(NC(C)=O)C(Cl)(Cl)Cl)sc2c1CCCC2` (stereo unspecified), the AC50 under setting [1] is 14.6 µM [falling, partial curve, poor fit].
`CCc1noc(C)c1C(=O)Nc1nc2ccc(OC)cc2s1`: the AC50 under setting [1] was 23.1 µM [falling, partial curve].
With `COc1ccccc1N=Nc1c(C)noc1C`, the AC50 by setting is: under setting [1], 20 µM [rising, partial curve, poor fit]; under setting [2], 15.8 µM [falling, single point].
Consider `CCC(C)N(C(=O)COC(=O)c1cc([N+](=O)[O-])ccc1N)C1CCS(=O)(=O)C1` (stereo unspecified), for which, under setting [1], the AC50 was 3.16 µM [falling, partial curve, poor fit].
Still for that read-out and setting: next, `CSc1ccc(NC(=O)NCCCN2CCC(Cc3ccccc3)CC2)cc1`: 14.1 µM [falling, partial curve]; `CCCc1nc(SCc2cccnc2)c2c(=O)n(C)c(=O)n(C)c2n1`: 5.8 µM [falling, partial curve]; `CS(=O)(=O)Cc1nc2ccccc2oc1=O`: 8.91 µM [falling, partial curve, poor fit].
For the molecule `Cc1ccc(NC(=O)/C=N/OCC(=O)NCc2ccccc2Cl)cc1`, the AC50 under setting [1] is 12.6 µM [falling, partial curve].
On to `CCOC(=O)CSc1nc2c(sc3cccc(F)c32)c(=O)n1Cc1ccc(OC)cc1`, for which the AC50 under setting [1] was 6.31 µM [rising, single point].
As to `COc1cccc(C2CC3(CC(C)(C)NC(=S)N3)Oc3cc(O)ccc32)c1` (stereo unspecified), the AC50 under setting [1] is 29.1 µM [falling, single point].
